Reference: article PMC6947699
Like-named read-outs stand apart in the source and are kept apart here. Results are given in words; binding and its absence hold for the method and conditions named. In cells and extracts the contact can be indirect. Some entries that bind do so weakly or less than the wild type. Tags and fused reporters may be left off the sequences shown.

Sequences of proteins named here, by UniProt entry; tags and fusion partners are left off.
UniProt P35226: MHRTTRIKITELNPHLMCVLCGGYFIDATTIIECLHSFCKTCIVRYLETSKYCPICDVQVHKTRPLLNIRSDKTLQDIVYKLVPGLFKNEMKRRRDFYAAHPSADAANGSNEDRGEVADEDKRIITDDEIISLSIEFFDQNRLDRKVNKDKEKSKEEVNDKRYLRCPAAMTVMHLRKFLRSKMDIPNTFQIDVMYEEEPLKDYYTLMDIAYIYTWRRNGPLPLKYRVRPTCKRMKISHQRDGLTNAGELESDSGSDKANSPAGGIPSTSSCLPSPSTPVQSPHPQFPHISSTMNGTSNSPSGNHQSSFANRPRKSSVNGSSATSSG

Columns and labels:
Assay in all cases: co-IP; co-immunoprecipitation from lysates of breast cancer cells (SUM159; cells overexpressing IL1R2 or sIL1R2), Western blot
[1] = target: T1, Ubiquitin-specific protease 15 (USP15) in SUM159 cells (human (in human SUM159 cells; endogenous or HA-tagged not told)) (UniProt Q9Y4E8)
T1 sequence: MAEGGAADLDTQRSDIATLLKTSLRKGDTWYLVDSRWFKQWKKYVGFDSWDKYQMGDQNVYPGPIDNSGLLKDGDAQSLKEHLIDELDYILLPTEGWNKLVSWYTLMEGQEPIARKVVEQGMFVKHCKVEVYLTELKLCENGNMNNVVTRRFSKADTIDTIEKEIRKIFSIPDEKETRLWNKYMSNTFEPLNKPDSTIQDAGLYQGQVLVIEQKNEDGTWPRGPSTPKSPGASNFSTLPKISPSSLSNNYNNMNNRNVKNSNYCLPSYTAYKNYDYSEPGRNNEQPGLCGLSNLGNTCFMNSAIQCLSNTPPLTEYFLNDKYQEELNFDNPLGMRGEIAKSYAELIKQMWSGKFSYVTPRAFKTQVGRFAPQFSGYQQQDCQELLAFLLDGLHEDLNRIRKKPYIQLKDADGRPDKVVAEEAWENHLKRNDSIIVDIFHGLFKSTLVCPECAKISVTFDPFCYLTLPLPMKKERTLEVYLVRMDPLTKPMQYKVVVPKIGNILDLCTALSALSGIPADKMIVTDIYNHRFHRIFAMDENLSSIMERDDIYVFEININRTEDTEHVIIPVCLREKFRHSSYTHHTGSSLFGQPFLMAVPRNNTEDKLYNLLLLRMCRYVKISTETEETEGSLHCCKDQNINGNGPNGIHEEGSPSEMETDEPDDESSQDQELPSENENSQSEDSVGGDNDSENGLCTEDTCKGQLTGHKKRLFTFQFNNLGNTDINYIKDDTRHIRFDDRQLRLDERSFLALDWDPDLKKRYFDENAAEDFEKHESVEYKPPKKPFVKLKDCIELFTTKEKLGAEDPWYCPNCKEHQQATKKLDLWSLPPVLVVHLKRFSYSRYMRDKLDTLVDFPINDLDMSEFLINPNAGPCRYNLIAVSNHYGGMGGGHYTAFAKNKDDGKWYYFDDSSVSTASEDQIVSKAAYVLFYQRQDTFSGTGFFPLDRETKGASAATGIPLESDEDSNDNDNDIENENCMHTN

[2] = target: T1, Ubiquitin-specific protease 15 (USP15) in SUM159 cells (human (in human SUM159 cells; endogenous or HA-tagged not told)); remark: listed apart in the source
[3] = target: BMI1 protein in breast cancer cells (human (in human SUM159 cells; endogenous or HA-tagged not told)) (UniProt P35226)

BMI1 protein in breast cancer cells (from UniProt P35226 1-326)
binding [1]: binds

B1: Full-length interleukin-1 receptor type 2 (IL1R2) with a C-terminal FLAG tag (receptor, UniProt P27930-1 14-398)
chain: FTLQPAAHTGAARSCRFRGRHYKREFRLEGEPVALRCPQVPYWLWASVSPRINLTWHKNDSARTVPGEEETRMWAQDGALWLLPALQEDSGTYVCTTRNASYCDKMSIELRVFENTDAFLPFISYPQILTLSTSGVLVCPDLSEFTRDKTDVKIQWYKDSLLLDKDNEKFLSVRGTTHLLVHDVALEDAGYYRCVLTFAHEGQQYNITRSIELRIKKKKEETIPVIISPLKTISASLGSRLTIPCKVFLGTGTPLTTMLWWTANDTHIESAYPGGRVTEGPRQEYSENNENYIEVPLIFDPVTREDLHMDFKCVVHNTLSFQTLRTTVKEASSTFSWGIVLAPLSLAFLVLGGIWMHRRCKHRTGKADGLTVLWPHHQDFQSYPK
binding [2]: binds

B2: IL1R2 ectodomain (soluble IL1R2) with a C-terminal FLAG tag (domain or fragment, UniProt P27930-1 14-343)
chain: FTLQPAAHTGAARSCRFRGRHYKREFRLEGEPVALRCPQVPYWLWASVSPRINLTWHKNDSARTVPGEEETRMWAQDGALWLLPALQEDSGTYVCTTRNASYCDKMSIELRVFENTDAFLPFISYPQILTLSTSGVLVCPDLSEFTRDKTDVKIQWYKDSLLLDKDNEKFLSVRGTTHLLVHDVALEDAGYYRCVLTFAHEGQQYNITRSIELRIKKKKEETIPVIISPLKTISASLGSRLTIPCKVFLGTGTPLTTMLWWTANDTHIESAYPGGRVTEGPRQEYSENNENYIEVPLIFDPVTREDLHMDFKCVVHNTLSFQTLRTTVKE
binding [3]: no binding
